{
  "sequences": {"note": "By UniProt entry, the sequences of proteins in these tests, tags left out.", "UniProt Q9UNE7": "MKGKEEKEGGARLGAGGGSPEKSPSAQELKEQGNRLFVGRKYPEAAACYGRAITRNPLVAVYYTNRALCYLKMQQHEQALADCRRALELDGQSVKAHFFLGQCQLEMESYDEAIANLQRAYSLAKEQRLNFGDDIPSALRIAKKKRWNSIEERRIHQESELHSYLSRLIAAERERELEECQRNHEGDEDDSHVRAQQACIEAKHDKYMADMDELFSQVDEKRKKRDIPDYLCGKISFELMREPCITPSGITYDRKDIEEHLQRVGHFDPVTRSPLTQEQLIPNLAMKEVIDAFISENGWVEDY", "UniProt P27361": "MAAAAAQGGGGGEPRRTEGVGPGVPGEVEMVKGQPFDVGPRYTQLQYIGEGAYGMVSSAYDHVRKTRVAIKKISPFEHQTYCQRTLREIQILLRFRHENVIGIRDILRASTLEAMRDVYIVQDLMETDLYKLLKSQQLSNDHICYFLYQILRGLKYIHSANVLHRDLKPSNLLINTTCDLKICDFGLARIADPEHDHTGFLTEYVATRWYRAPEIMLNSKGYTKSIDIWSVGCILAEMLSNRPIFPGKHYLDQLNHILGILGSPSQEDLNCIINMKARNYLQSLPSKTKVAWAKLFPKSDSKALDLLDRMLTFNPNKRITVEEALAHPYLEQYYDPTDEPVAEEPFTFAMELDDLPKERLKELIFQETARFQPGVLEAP"},
  "source": "paper PMC11425881",
  "molecules": {"B1": {"name": "Myc-tagged PPM1α, expressed in HepG2 cells (enzyme, UniProt P35813 1-382)", "chain": "MGAFLDKPKMEKHNAQGQGNGLRYGLSSMQGWRVEMEDAHTAVIGLPSGLESWSFFAVYDGHAGSQVAKYCCEHLLDHITNNQDFKGSAGAPSVENVKNGIRTGFLEIDEHMRVMSEKKHGADRSGSTAVGVLISPQHTYFINCGDSRGLLCRNRKVHFFTQDHKPSNPLEKERIQNAGGSVMIQRVNGSLAVSRALGDFDYKCVHGKGPTEQLVSPEPEVHDIERSEEDDQFIILACDGIWDVMGNEELCDFVRSRLEVTDDLEKVCNEVVDTCLYKGSRDNMSVILICFPNAPKVSPEAVKKEAELDKYLECRVEEIIKKQGEGVPDLVHVMRTLASENIPSLPPGGELASKRNVIEAVYNRLNPYKNDDTDSTSTDDMW"}, "B2": {"name": "Flag-tagged PAQR9 (progesterone and adiponectin receptor 9), expressed in HepG2 cells (protein, UniProt Q6ZVX9 1-377)", "chain": "MPRRLQPRGAGTKGPPAPAPAASGAARNSHSAASRDPPASAKPLLRWDEVPDDFVECFILSGYRRLPCTAQECLASVLKPTNETLNFWTHFIPLLLFLSKFCRLFFLSGGDVPFHHPWLLPLWCYASGVLLTFAMSCTAHVFSCLSLRLRAAFFYLDYASISYYGFGSTVAYYYYLLPGLSLLDARVMTPYLQQRLGWHVDCTRLIAAYRALVLPVAFVLAVACTVACCKSRTDWCTYPFALRTFVFVMPLSMACPIMLESWLFDLRGENPTLFVHFYRRYFWLVVAAFFNVSKIPERIQPGLFDIIGHSHQLFHIFTFLSIYDQVYYVEEGLRQFLQAPPAAPTFSGTVGYMLLLVVCLGLVIRKFLNSSEFCSKK"}, "B3": {"name": "Flag-tagged PAQR9 (progesterone and adiponectin receptor 9), expressed in HEK293 cells (protein, UniProt Q6ZVX9 1-377)", "chain": "B2 chain"}, "B4": {"name": "endogenous PPM1α (protein phosphatase, Mg2+/Mn2+ dependent 1) of HepG2 cells (enzyme, UniProt P35813 1-382)", "chain": "B1 chain"}},
  "key": {"[1]": {"target": "T1, Myc-tagged PPM1α, expressed in HEK293 / HEK293T cells (human (cDNA of HepG2 cells)) (UniProt P35813)", "T1 sequence": "B1 chain", "assay": "co-IP; transfected HEK293 / HEK293T cells, 36 h after transfection; RIPA lysate, antibody overnight at 4 °C, protein A/G agarose 3 h, washed with PBS, immunoblot"}, "[2]": {"target": "HA-tagged STUB1, expressed in HepG2 cells (human (cDNA of HepG2 cells)) (UniProt Q9UNE7)", "assay": "co-IP; transfected HepG2 cells, 36 h after transfection; RIPA lysate, antibody (anti-Flag or anti-HA) overnight at 4 °C, protein A/G agarose 3 h, washed with PBS, immunoblot"}, "[3]": {"target": "T1, Myc-tagged PPM1α, expressed in HEK293 / HEK293T cells (human (cDNA of HepG2 cells))", "assay": "co-IP; transfected HEK293 / HEK293T cells, 36 h after transfection; RIPA lysate, antibody overnight at 4 °C, protein A/G agarose 3 h, washed with PBS, immunoblot", "remark": "listed apart in the source"}, "[4]": {"target": "T2, Flag-tagged PAQR9 (progesterone and adiponectin receptor 9), expressed in HepG2 cells (UniProt Q6ZVX9)", "T2 sequence": "B2 chain", "assay": "co-IP; transfected HepG2 cells, 36 h after transfection; RIPA lysate, antibody (anti-Flag or anti-HA) overnight at 4 °C, protein A/G agarose 3 h, washed with PBS, immunoblot"}},
  "note": "Where two headings read alike, the source gives them in different places. These are yes or no findings as the source states them, for the method shown. In cells and extracts the contact can be indirect. Some binding calls cover weakened binding; strength is not graded here. Sequences can lack the tags named with a protein.",
  "data": [
    {"molecule": "ERK1, endogenous in HEK293T cells (from UniProt P27361 1-379) (enzyme)", "values": [
      {"measurement": "binding", "setting": "[1]", "value": "binds"}
    ]},
    {"molecule": "B1", "values": [
      {"measurement": "binding", "setting": "[2]", "value": "binds"}
    ]},
    {"molecule": "B2", "values": [
      {"measurement": "binding", "setting": "[2]", "value": "binds"}
    ]},
    {"molecule": "B3", "values": [
      {"measurement": "binding", "setting": "[3]", "value": "binds"}
    ]},
    {"molecule": "B4", "values": [
      {"measurement": "binding", "setting": "[4]", "value": "binds"}
    ]}
  ]
}
